Laboratory results published in PubChem BioAssay AID504834 (National Center for Advancing Translational Sciences (NCATS), 2011).
Out of some 320,000 compounds screened, about 22,000 (6.9%) were called active. The inconclusive results got no clear call from the source; some entries with a clear call stand among them for comparison. Calls follow the shape of the dose curve; as a rule, active = well fitted inhibition curve with a large enough effect; inconclusive = small, poorly fitted or top-dose-only effect, or another doubt; inactive = no such curve, though single readings can be large or run the other way. A potency beside an inconclusive call is a rough fit, not a confirmed value.

Assay: Primary qHTS for delayed death inhibitors of the malarial parasite plastid, 96 hour incubation
Conditions: P. falciparum luciferase reporter growth; series mostly up to 28.7 µM
Outline: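 Plates of compound plus infected erythrocytes (2% hematocrit, 0.05% parasitemia final) incubate 96 hours, 37 C, 5% CO2. Detection reagent added; reduced luminescence from the parasites' luciferase reporter flags inhibition.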
Potency is read from the fitted curve at half-maximal effect.

SMILES | Potency
CCN(CC)S(=O)(=O)c1ccc(N2CCOCC2)c(NC(=O)Cc2ccccc2)c1 | inconclusive: 14.7 µM [inhibitor, single point]
Cc1c(NC(=O)CN2CCN(c3cccc(Cl)c3)CC2)c(=O)n(-c2ccccc2)n1C | inconclusive: 4.15 µM [inhibitor, single point]
CSc1ccc(S(=O)(=O)Nc2ccc3c4c(cccc24)CC3)cc1 | inconclusive: 0.0828 µM [inhibitor, full curve, poor fit]
O=C(Nc1cccc(C(F)(F)F)c1)c1cncs1 | inactive
COc1ccc(N2CC(C(=O)NCCc3c[nH]c4ccccc34)CC2=O)cc1 (centres undefined) | inconclusive: 13.1 µM [inhibitor, partial curve, poor fit]
Cc1ccc2nc(/C(C#N)=C\c3ccc(Oc4ccc(C(F)(F)F)cc4[N+](=O)[O-])cc3)[nH]c2c1 | inactive
COc1ccc(-c2csc(N(CCCN(C)C)C(=O)c3cccs3)n2)cc1 | inconclusive: 18.5 µM [inhibitor, single point]
COCCC(=O)N1CCc2c([nH]c3ccccc23)C1C(C)(C)C (centres undefined) | inconclusive: 18.5 µM [inhibitor, single point]
O=C(N1CCCCC1)C1(c2ccccc2)CCCCC1 | inconclusive: 18.5 µM [inhibitor, single point]
O=S(=O)(NC1CCN(S(=O)(=O)c2c(F)cccc2F)C1)c1ccc2c(c1)OCCO2 (centres undefined) | inconclusive: 16.5 µM [inhibitor, single point]
CCCc1cc(=O)[nH]c(SCC(=O)c2c(N)n(C3CC3)c(=O)[nH]c2=O)n1 | inactive
CCCC(c1nnnn1C(C)(C)CC)N1CCN(C2CCCC2)CC1 (centres undefined) | inconclusive: 2.08 µM [inhibitor, single point]
CCOc1cc(C2Nc3ccccc3NC3=C2C(=O)CC(C)(C)C3)ccc1OC(C)=O (centres undefined) | inconclusive: 18.5 µM [inhibitor, single point]
Cc1cc(N2CCN(S(=O)(=O)c3ccc4c(c3)OCCO4)CC2)n2ncnc2n1 | inconclusive: 18.5 µM [inhibitor, single point]
CC(C)n1nc(C(=O)Nc2ccc3c(c2)OCO3)c2ccccc2c1=O | inactive
Cc1ccc(CSc2ccc(S(=O)(=O)N3CCCC3)cn2)cc1 | inconclusive: 10.4 µM [inhibitor, partial curve, poor fit]
CCCCCn1c(N2CCN(Cc3ccccc3)CC2)nc2c1c(=O)[nH]c(=O)n2C | inconclusive: 9.28 µM [inhibitor, partial curve]
Cc1ccccc1-c1nnc(SCc2ccccc2F)o1 | inconclusive: 18.5 µM [inhibitor, single point]
CCN(CC)CCn1c(NS(=O)(=O)c2ccc(C)cc2)nc2ccccc21 | active: 10.4 µM
CCOC(=O)C1=C(C)N=C2c3ccccc3C(=O)C2C1c1ccc(Cl)cc1 (centres undefined) | active: 10.4 µM
Cc1ccc(S(=O)(=O)N2CCCC(C(=O)NC3CCCC3)C2)cc1 (centres undefined) | inconclusive: 0.657 µM [inhibitor, full curve, poor fit]
COC(=O)c1cc2ccsc2n1Cc1nc(-c2ccc(Cl)cc2)oc1C | inconclusive: 13.1 µM [inhibitor, single point]

SMILES | Potency
Cc1cnc(C(=O)Nc2ccc(S(=O)(=O)NCC(C)C)cc2)cn1 | active: 9.28 µM
CCCCc1nc(SCC(=O)Nc2cccc(Cl)c2)n[nH]1 | inconclusive: 0.928 µM [inhibitor, full curve, poor fit]
O=C(NCCCN1CCc2ccccc2C1)Nc1ccc(Cl)cc1 | inconclusive: 0.0657 µM [inhibitor, full curve, poor fit]
COc1ccc(S(=O)(=O)N2CCOCC2)cc1C(=O)N(C)CCOc1ccc(Cl)cc1 | inconclusive: 4.15 µM [inhibitor, full curve, poor fit]
Cc1nn(C)c(Cl)c1CN1CCC(CO)(CCOc2ccccc2)CC1 | inconclusive: 11.7 µM [inhibitor, single point]
COc1cccc([C@@H]2CC=C(C(=O)O)[C@H](c3ccc(F)cc3)N2S(=O)(=O)c2ccc(C)cc2)c1 | inconclusive: 11.7 µM [inhibitor, single point]
CCOC(=O)CC(NC(=O)CCc1c(C)nc2ncnn2c1C)c1ccc(OC(C)C)cc1 (centres undefined) | inconclusive: 18.5 µM [inhibitor, single point]
Cc1ccc2c(c1)c1c(n2CC(O)CN2C(=O)CNC2=O)C(=O)CCC1 (centres undefined) | inconclusive: 13.1 µM [inhibitor, single point]
COc1ccc(S(=O)(=O)NC(C)C(=O)NCc2ccncc2)cc1C (centres undefined) | inconclusive: 2.94 µM [inhibitor, partial curve]
COc1cc(N2CCCC2)ccc1[N+](=O)[O-] | inconclusive: 14.7 µM [inhibitor, partial curve, poor fit]
O=C(NCCCN1CCCC1=O)c1ccc(NS(=O)(=O)c2ccc(F)cc2)cc1 | inconclusive: 11.7 µM [inhibitor, partial curve, poor fit]
CN1CCN(c2cc(N3CCc4ccccc4C3)c(F)cc2[N+](=O)[O-])CC1 | inconclusive: 18.5 µM [inhibitor, single point]
O=C(CCNC(=O)c1ccccc1)N=Nc1c(O)[nH]c2ccccc12 | inactive
O=C(c1ccccc1)c1c[nH]c2cc3c(cc2c1=O)OCO3 | inconclusive: 1.17 µM [inhibitor, full curve, poor fit]
Nc1ncnc2nc(SCC(=O)N3CCN(c4ccccc4)CC3)[nH]c12 | inactive
CC(=O)N1CCc2c(sc(NC(=O)Cc3ccccc3)c2C(N)=O)C1 | inconclusive: 5.22 µM [inhibitor, partial curve]
CCOc1ccc(NC(=O)c2oc3ccccc3c2NC(=O)CC)cc1 | inconclusive: 0.522 µM [inhibitor, full curve, poor fit]
COc1cccc(CN(C)C(=O)CNC(=O)c2ccc(-c3ccccc3)cc2)c1OC | inconclusive: 0.294 µM [inhibitor, full curve, poor fit]
CC1CCCC(C)N1C(=O)c1ccc2c(c1)S(=O)(=O)c1ccccc1C2=O (centres undefined) | inconclusive: 5.22 µM [inhibitor, single point]
Cc1cccc(NC(=O)c2ccc(-n3ccnc3)nc2)c1 | inconclusive: 18.5 µM [inhibitor, single point]
CC(=O)NC1=NN(C(C)=O)C(C)(c2ccc(C)cc2)S1 (centres undefined) | inconclusive: 11.7 µM [inhibitor, single point]
CC(=O)c1ccc(NC(=O)c2cc(CC(C)C)nc3ccccc23)cc1 | inconclusive: 13.1 µM [inhibitor, partial curve]

SMILES | Potency
O=C1CCC(C(=O)NCCN2C(=O)S/C(=C\c3cccnc3)C2=O)=NN1 | inactive
CCCC1(C(=O)OCC)NC(c2ccc(OC)cc2OC)C2C(=O)N(c3ccccc3)C(=O)C21 (centres undefined) | inconclusive: 2.33 µM [inhibitor, full curve, poor fit]
CN1CCN(S(=O)(=O)c2ccc(NS(=O)(=O)c3ccccc3)cc2)CC1 | inactive
Cc1cc(/C=N\NC(=O)CC(=O)NC2CCCCC2)c(C)n1-c1cccc(Cl)c1Cl | active: 8.28 µM
O=C(CCN1CCC(c2ccccc2)C1)c1cccs1 (centres undefined) | inconclusive: 18.5 µM [inhibitor, single point]
COc1ccc2ccc(C(C)(C(C)=O)C(=O)OC(C)C)cc2c1 (centres undefined) | inconclusive: 16.5 µM [inhibitor, single point]
O=C(CCCOc1ccccc1)Nc1cccnc1 | inconclusive: 13.1 µM [inhibitor, partial curve, poor fit]
O=c1c2ccccc2c(/C=N/NS(=O)(=O)c2ccccc2)c(O)n1-c1ccccn1 | inactive
O=C(Cn1c(C(F)(F)F)nc2ccccc21)Oc1cccc(C(F)(F)F)c1 | inactive
CN(C)S(=O)(=O)c1cc(NC(=O)COC(=O)C2CSC3(C)CCC(=O)N23)ccc1Cl (centres undefined) | inconclusive: 0.0465 µM [inhibitor, single point]
CCOC(=O)C1CCN(C(=O)CCc2ccc(S(=O)(=O)NCC(C)C)cc2)CC1 | inconclusive: 9.28 µM [inhibitor, partial curve]
CC(C)(C)C(=O)Cn1ncc(Cl)c(Cl)c1=O | inconclusive: 1.17 µM [inhibitor, full curve, poor fit]
CC(=O)c1cccc(NC(=S)N2c3ccccc3CC2C)c1 (centres undefined) | inconclusive: 18.5 µM [inhibitor, single point]
COc1cc(CCNC(=O)c2cnn3ccccc23)cc(OC)c1OC | inconclusive: 6.57 µM [inhibitor, partial curve]
Cc1cc(=O)c(C(=O)N[C@@H](C(=O)N[C@@H]2C(=O)N3C(C(=O)O)=C(CSc4nnnn4C)CS[C@H]23)c2ccc(O)cc2)c[nH]1 | inconclusive: 13.5 µM [inhibitor, single point]
CC(C)c1cc(NCCOCCO)n2c(nc3ccccc32)c1C#N | inactive
CCOC(=O)c1sc(NC(=O)CSc2nc(-c3ccco3)cc(C(F)(F)F)n2)c(C(=O)OC)c1C | inconclusive: 1.31 µM [inhibitor, partial curve, poor fit]
CSc1cnc2c(N)nc(N(C)C)nc2n1 | inactive
CC(C)[C@H]1COCCS(=O)(=O)N1Cc1cccc(Cl)c1 | inconclusive: 18.5 µM [inhibitor, single point]
CN(C)S(=O)(=O)n1cc(/C=C(\NC(=O)c2ccccc2)C(=O)N2CCCC2)c2ccccc21 | inconclusive: 18.5 µM [inhibitor, single point]

Reprinted from the entries so far (13 entries):
SMILES | Potency
CN1CCN(S(=O)(=O)c2ccc(NS(=O)(=O)c3ccccc3)cc2)CC1 | inactive
Cc1cc(/C=N\NC(=O)CC(=O)NC2CCCCC2)c(C)n1-c1cccc(Cl)c1Cl | active: 8.28 µM
O=C(CCN1CCC(c2ccccc2)C1)c1cccs1 (centres undefined) | inconclusive: 18.5 µM [inhibitor, single point]
COc1ccc2ccc(C(C)(C(C)=O)C(=O)OC(C)C)cc2c1 (centres undefined) | inconclusive: 16.5 µM [inhibitor, single point]
O=C(CCCOc1ccccc1)Nc1cccnc1 | inconclusive: 13.1 µM [inhibitor, partial curve, poor fit]
O=c1c2ccccc2c(/C=N/NS(=O)(=O)c2ccccc2)c(O)n1-c1ccccn1 | inactive
O=C(Cn1c(C(F)(F)F)nc2ccccc21)Oc1cccc(C(F)(F)F)c1 | inactive
CN(C)S(=O)(=O)c1cc(NC(=O)COC(=O)C2CSC3(C)CCC(=O)N23)ccc1Cl (centres undefined) | inconclusive: 0.0465 µM [inhibitor, single point]
CCOC(=O)C1CCN(C(=O)CCc2ccc(S(=O)(=O)NCC(C)C)cc2)CC1 | inconclusive: 9.28 µM [inhibitor, partial curve]
CC(C)(C)C(=O)Cn1ncc(Cl)c(Cl)c1=O | inconclusive: 1.17 µM [inhibitor, full curve, poor fit]
CC(=O)c1cccc(NC(=S)N2c3ccccc3CC2C)c1 (centres undefined) | inconclusive: 18.5 µM [inhibitor, single point]
COc1cc(CCNC(=O)c2cnn3ccccc23)cc(OC)c1OC | inconclusive: 6.57 µM [inhibitor, partial curve]
Cc1cc(=O)c(C(=O)N[C@@H](C(=O)N[C@@H]2C(=O)N3C(C(=O)O)=C(CSc4nnnn4C)CS[C@H]23)c2ccc(O)cc2)c[nH]1 | inconclusive: 13.5 µM [inhibitor, single point]
